This is one part of the list.

Here are results for 42 sequences from publication PMC7819943, “Rice protein-binding microarrays: a tool to detect cis-acting elements near promoter regions in rice”.

The target of the test is T1, OsSMF1 (Oryza sativa, UniProt Q6ZLB0 1-436).
T1 sequence: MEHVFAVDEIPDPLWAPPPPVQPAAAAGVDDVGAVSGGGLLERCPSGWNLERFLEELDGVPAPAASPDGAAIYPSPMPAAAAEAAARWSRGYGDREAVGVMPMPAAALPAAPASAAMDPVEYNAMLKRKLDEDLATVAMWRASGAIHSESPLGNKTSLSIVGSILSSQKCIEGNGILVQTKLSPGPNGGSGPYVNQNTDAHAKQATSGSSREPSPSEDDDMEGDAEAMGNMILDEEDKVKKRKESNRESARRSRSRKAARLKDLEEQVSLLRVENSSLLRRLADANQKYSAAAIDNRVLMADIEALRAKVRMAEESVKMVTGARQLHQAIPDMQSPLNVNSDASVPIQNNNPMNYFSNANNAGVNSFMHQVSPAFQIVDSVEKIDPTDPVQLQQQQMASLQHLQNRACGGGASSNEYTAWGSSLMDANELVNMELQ
Nature of the test: protein-binding microarray (RPBM); PBS, 2% BSA, 51.3 ng/ul salmon testes DNA, 50 uM zinc acetate, 200 nM TF, 25 C, 1 h; high values mean tight binding. To be noted: protein: recombinant; tags: N-terminal polyhistidine and DsRed monomer fusion (pET32a); chain copies: 2; label: CyDye5-dUTP incorporated in the synthesized complementary strand; 3' TTTTT single-stranded linker to array surface; dsDNA, one strand shown. Summed up: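 Ni–NTA purification followed expression in E. coli BL21-CodonPlus of transcription factors fused N-terminally to a polyhistidine tag and DsRed. At 200 nM in PBS with 2% BSA, salmon testes DNA and 50 µM zinc acetate, the protein was incubated for 1 h at 25 °C with a custom Agilent array that had been primer-extended with Cy5-dUTP and blocked with 2% BSA. After washing, the array was read on an Axon 4000B scanner. The binding signal is per-feature fluorescence intensity in arbitrary units.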
For the sequence “ACACGGCCTATAAATATCTAACCATCCTTTGCCTGTCGAGCGGAGTCACCTAGTGCAG”, the binding signal is 4970 fluorescence intensity (a.u.).
Take “ACTACTAGTAAAATTGTAATGGTCGTGTCATGTCGTTCTTCGGAGTCACCTAGTGCAG”: the binding signal is 5290 fluorescence intensity (a.u.).
For “TAGTTTTGTGATACACCGAGTTAAATATGTAGTTTTGTTACGGAGTCACCTAGTGCAG”, the binding signal was 4230 fluorescence intensity (a.u.).
The same measure for “GTCAGGTGGCGGCGGCGGCGGTGGTGGCGGTGGAGGTGGACGGAGTCACCTAGTGCAG”: 5570 fluorescence intensity (a.u.); for “ATTCGTGTCCGAAAATCACTTCCAACACCCGATCAAACATCGGAGTCACCTAGTGCAG”: 3880 fluorescence intensity (a.u.).
Turning to “CAAGCACAAACACGATCATCAAGGTCATGACAGTTCCTAGCGGAGTCACCTAGTGCAG”, the binding signal is 3830 fluorescence intensity (a.u.).
Turning to “CCGATTAGACTATCGTGCCATCAACACTGCTCGGCGGCGTCGGAGTCACCTAGTGCAG”, the binding signal was 10700 fluorescence intensity (a.u.).
As for “AGGTTCGGGGATCTTGATGTGGCAATGGAATTGCTTGGGCCGGAGTCACCTAGTGCAG”, the binding signal was 5200 fluorescence intensity (a.u.).
With “GAGTGAGGGATCTAGAAGATGACACATGTGCATCTCTGATCGGAGTCACCTAGTGCAG”, the binding signal was 5170 fluorescence intensity (a.u.).
For the sequence “ACCAAATTAGTGGCTGTACCGAACGTTATTAGCGCTTTAACGGAGTCACCTAGTGCAG”, the binding signal was 14900 fluorescence intensity (a.u.).
On to “TTTAAACATGTGCACATGCACTGTGCTGCCACGACGGAGGCGGAGTCACCTAGTGCAG”, for which the binding signal is 4120 fluorescence intensity (a.u.).
In the case of “TATCCTCTCCCGGTGTCCACGCGTGCCATTGCATTGCATTCGGAGTCACCTAGTGCAG”, the binding signal is 3630 fluorescence intensity (a.u.).
Then “ACTTGTTTGGAAGGTAGCAACAGTACACTATACACTGACTCGGAGTCACCTAGTGCAG”, with 3540 fluorescence intensity (a.u.); and “TCCTGATGCCGCCACCACCTCCTTCGCTGTTACCACCTCTCGGAGTCACCTAGTGCAG”, with 4090 fluorescence intensity (a.u.).
Consider “AGTTCAATTGCTTTGATGAGTGAGCAGAGAGATGATGCAGCGGAGTCACCTAGTGCAG”, for which the binding signal is 3280 fluorescence intensity (a.u.).
Then “TGGGCCCGCGCCACGTGCATCCAGCATCAATCCACCACATCGGAGTCACCTAGTGCAG”, with 20200 fluorescence intensity (a.u.); and “GACGACGGCGGCGGGAGCAATCCGCGGCGACGGGGCGGGGCGGAGTCACCTAGTGCAG”, with 4330 fluorescence intensity (a.u.).
For “GCAATGACAAAGTGTTACGGTGTATTCTTAACATCATTCTCGGAGTCACCTAGTGCAG”, the binding signal is 3280 fluorescence intensity (a.u.).
Regarding “AAAGTCAGAGAAAGGTATGTTAGATTGGCTAGTTAGTTTGCGGAGTCACCTAGTGCAG”, the binding signal was 21600 fluorescence intensity (a.u.).
Regarding “CACTCTCCTCCTACACTGCATGCTGCTGCTGACGTGGCTCCGGAGTCACCTAGTGCAG”, the binding signal was 24900 fluorescence intensity (a.u.).
Consider “AGTGACAGCTCAGGCTTTGTCGATGTCGTCTCCACTACCGCGGAGTCACCTAGTGCAG”, for which the binding signal was 5470 fluorescence intensity (a.u.).
For “CTTTGTTAGTGATAATATATAATGTTTGTTATACAGTCATCGGAGTCACCTAGTGCAG”, the binding signal was 3750 fluorescence intensity (a.u.).
Consider “ATTTGCCACTTTTGCCCACGTGGCATGCCAACGTAGCAATCGGAGTCACCTAGTGCAG”, for which the binding signal is 23000 fluorescence intensity (a.u.).
“TAATTGTATTTCATAGATAATCCATGCACGTCATTTCCTTCGGAGTCACCTAGTGCAG”: the binding signal was 5490 fluorescence intensity (a.u.).
Turning to “ATTAGTTATGTGCTAATGAGTCACTCCATTTTGGTGTTAACGGAGTCACCTAGTGCAG”, the binding signal was 4310 fluorescence intensity (a.u.).
For “CTCCACCGCCACCGCCGCCACCTCGCGAGCAGCGGCCCTGCGGAGTCACCTAGTGCAG”, the binding signal was 3960 fluorescence intensity (a.u.).
Consider “TCGCCGGTGTGCAAGATGTGATGTGCTTAAGGTATTAATGCGGAGTCACCTAGTGCAG”, for which the binding signal was 3320 fluorescence intensity (a.u.).
As to “CCGGCCCACGCCACGCCGTCCCCATCACATCACACCGGCCCGGAGTCACCTAGTGCAG”, the binding signal was 3930 fluorescence intensity (a.u.).
With “GTTCTACGGCGACGACGCCAAGTCGCTGATCCTGCTCATCCGGAGTCACCTAGTGCAG”, the binding signal is 3670 fluorescence intensity (a.u.).
Turning to “GTCGCCAGCCACGGCAGCTTGCTCCCGCTCGTCACCAAGCCGGAGTCACCTAGTGCAG”, the binding signal is 3160 fluorescence intensity (a.u.).
For “GAGACCATCTAGCAGGAGACACGTGGGCTACCACGTGGCACGGAGTCACCTAGTGCAG”, the binding signal is 14200 fluorescence intensity (a.u.).
Consider “GTATGCCATCTTGTATCCAACTTCGTCACCCGGTATCCTTCGGAGTCACCTAGTGCAG”, for which the binding signal is 4840 fluorescence intensity (a.u.).
“ATATCGTGATTATTACTCACCACACGTTGTACACAATGATCGGAGTCACCTAGTGCAG”: the binding signal was 3750 fluorescence intensity (a.u.).
Take “GTATGACTGCATTGCCAGCTGTGGAAACCTAGCCTATTTGCGGAGTCACCTAGTGCAG”: the binding signal is 6520 fluorescence intensity (a.u.).
With “TGGGTGTTTTGTCCGCGCGCGGTGACGCAGCGTGAGGCGACGGAGTCACCTAGTGCAG”, the binding signal was 6120 fluorescence intensity (a.u.).
In the case of “TGACTGCGCCCTATTCACCACGTGCCACGTGCGATGACGACGGAGTCACCTAGTGCAG”, the binding signal is 6370 fluorescence intensity (a.u.).
Then “CGCCTCTCGTCGGGTGGTACATCTCCGCCCGGTCGCGCCGCGGAGTCACCTAGTGCAG”, with 16600 fluorescence intensity (a.u.).
Take “TGATTTAAACATGTTATGTAAGGAGAGTTGGAGACAGATACGGAGTCACCTAGTGCAG”: the binding signal was 22000 fluorescence intensity (a.u.).
Then “GGCATTGGGAATAGTTGACTAGGATTAAACAACATCCAAACGGAGTCACCTAGTGCAG”, with 3270 fluorescence intensity (a.u.); and “AATCGATTCTCCACTACTCTCTCGTCATTGTTCCCATGTTCGGAGTCACCTAGTGCAG”, with 3270 fluorescence intensity (a.u.).
With “TTCTTCGACCGCACGACACCGCCACGTCGACAACCACCTCCGGAGTCACCTAGTGCAG”, the binding signal is 15600 fluorescence intensity (a.u.).
As to “TCCCACCAGAGCGCCACGTCCACACCCACCCACACACCACCGGAGTCACCTAGTGCAG”, the binding signal is 3940 fluorescence intensity (a.u.).
